# From US20230338510A1, “NOVEL C[…] EPITOPE P[…] AND USE THEREOF” (SHANGHAI INSTITUTE OF MATERIA MEDICA, CHINESE ACADEMY OF …, priority 2020, published 2023)
# By UniProt entry, the sequences of proteins in these tests, tags left out. Residues count along the entry.
# UniProt Q9BYF1, residues 18-740: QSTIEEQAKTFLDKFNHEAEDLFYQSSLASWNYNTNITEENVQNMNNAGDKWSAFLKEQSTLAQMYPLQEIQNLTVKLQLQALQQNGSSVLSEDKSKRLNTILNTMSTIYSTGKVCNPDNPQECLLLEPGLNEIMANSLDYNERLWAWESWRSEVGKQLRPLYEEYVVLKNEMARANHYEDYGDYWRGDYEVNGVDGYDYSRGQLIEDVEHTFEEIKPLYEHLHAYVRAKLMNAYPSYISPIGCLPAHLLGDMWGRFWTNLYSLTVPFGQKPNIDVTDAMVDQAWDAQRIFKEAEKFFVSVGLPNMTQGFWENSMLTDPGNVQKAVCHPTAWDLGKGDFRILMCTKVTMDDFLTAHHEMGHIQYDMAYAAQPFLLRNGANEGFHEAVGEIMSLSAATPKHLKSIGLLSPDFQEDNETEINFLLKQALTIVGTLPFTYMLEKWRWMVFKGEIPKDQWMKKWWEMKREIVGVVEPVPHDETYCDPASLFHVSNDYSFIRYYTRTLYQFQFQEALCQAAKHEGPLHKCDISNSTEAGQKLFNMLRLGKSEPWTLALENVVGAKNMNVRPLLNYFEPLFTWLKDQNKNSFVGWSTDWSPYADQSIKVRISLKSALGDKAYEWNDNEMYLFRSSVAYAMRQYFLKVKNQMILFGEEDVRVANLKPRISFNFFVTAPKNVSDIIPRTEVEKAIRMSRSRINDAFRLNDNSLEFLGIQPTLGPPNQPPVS
# These are yes or no findings as the source states them, for the method shown. Some binding calls cover weakened binding; strength is not graded here.
# How the values were obtained:
# [1] = target: T1, human ACE2 (Homo sapiens, UniProt Q9BYF1); assay: ELISA (FIG. 10 legend)
# [2] = target: T1, human ACE2; assay: ELISA, ACE2-coated plate (10 ug/mL), biotin-labelled LP2 at 1, 0.5 and 0.25 ug/mL, HRP-streptavidin
binder,measurement,setting,value
AKFVAAWTLKAAAGGGGYGFQPTNGVGYQPGGGGNYLYRLFRKSNLKPF (labeled with biotin (site not stated) in the ACE2 binding ELISA) [polypeptide LP2],binding,[1],binds
same,binding,[2],binds
